Measurements as given in publication PMC11555707, “Histone deacetylase 7 activates 6-phosphogluconate dehydrogenase via an enzyme-independent mechanism that involves the N-terminal protein-protein interaction domain” (Biochemical Journal, 2024).
No constants are given. Whether binding was seen depends on the method and setting. Binding seen in cells or lysates may run through a third protein. A result given as binding can be weak or reduced; the word gives no strength. Tags and fused reporters may be left off the sequences shown.

Amino acid sequences for entries named in this document (tags omitted). A change or cut given only in a name is not applied to a line headed by its entry.
UniProt Q8C2B3: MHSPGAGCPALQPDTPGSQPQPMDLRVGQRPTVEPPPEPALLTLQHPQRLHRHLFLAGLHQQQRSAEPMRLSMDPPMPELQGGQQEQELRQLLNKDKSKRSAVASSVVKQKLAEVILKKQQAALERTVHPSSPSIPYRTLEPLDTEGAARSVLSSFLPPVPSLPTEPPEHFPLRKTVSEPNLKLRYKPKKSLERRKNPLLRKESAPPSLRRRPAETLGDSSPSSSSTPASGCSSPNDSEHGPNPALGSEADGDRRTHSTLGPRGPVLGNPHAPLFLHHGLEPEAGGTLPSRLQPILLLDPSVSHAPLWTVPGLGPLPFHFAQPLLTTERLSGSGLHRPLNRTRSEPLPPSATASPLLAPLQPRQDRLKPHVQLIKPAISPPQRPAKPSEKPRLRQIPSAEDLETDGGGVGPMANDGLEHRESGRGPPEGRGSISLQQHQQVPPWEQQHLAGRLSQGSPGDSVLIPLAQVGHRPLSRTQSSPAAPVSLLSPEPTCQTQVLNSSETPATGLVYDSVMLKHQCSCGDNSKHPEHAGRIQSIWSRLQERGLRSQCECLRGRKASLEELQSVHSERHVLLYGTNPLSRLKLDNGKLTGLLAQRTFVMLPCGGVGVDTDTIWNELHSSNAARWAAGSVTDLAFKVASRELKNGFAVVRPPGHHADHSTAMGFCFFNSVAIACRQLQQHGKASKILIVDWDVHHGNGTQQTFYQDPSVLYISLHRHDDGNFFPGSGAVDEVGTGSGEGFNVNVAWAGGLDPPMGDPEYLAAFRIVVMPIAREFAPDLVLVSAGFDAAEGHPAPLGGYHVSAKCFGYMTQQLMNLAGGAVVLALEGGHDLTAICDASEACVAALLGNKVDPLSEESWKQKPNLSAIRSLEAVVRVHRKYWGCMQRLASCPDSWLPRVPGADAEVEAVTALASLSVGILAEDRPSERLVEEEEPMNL

T1: 6-phosphogluconate dehydrogenase (6PGD), Flag-tagged (mouse) (UniProt Q9DCD0)
T1 sequence: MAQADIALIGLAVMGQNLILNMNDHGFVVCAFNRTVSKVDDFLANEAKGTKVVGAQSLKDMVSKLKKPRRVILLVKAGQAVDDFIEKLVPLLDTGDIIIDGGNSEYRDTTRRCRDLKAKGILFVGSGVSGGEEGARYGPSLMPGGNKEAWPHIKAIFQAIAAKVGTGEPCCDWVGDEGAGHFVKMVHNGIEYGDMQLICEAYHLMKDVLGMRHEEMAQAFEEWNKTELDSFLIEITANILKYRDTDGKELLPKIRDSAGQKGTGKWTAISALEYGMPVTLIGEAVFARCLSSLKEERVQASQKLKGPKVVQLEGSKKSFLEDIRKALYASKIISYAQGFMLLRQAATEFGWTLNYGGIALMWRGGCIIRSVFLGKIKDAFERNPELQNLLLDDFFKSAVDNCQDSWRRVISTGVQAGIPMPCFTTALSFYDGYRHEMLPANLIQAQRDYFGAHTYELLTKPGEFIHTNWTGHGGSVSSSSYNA


Key:
[1] = molecular target: T1, 6-phosphogluconate dehydrogenase (6PGD), Flag-tagged (mouse); experiment: co-IP; HEK293 cells co-transfected 1:1 (6PGD:HDAC or SOX7) for 24 h; lysed in RIPA or mild lysis buffer; lysates immunoprecipitated with anti-Flag (6PGD as bait) and Dynabeads Protein G; immunoblot with anti-V5 and anti-Flag
[2] = molecular target: Histone deacetylase 7 enzyme-dead mutant (H649A), V5-tagged (mouse); experiment: co-IP; HEK293 cells co-transfected 1:1 (6PGD:HDAC) for 24 h; lysed in RIPA or mild lysis buffer; lysates immunoprecipitated with anti-V5 (HDAC as bait) and Dynabeads Protein G; immunoblot with anti-Flag and anti-V5

Molecule | binding [1] | binding [2]
C-terminal domain of HDAC7 (amino acid residues 498-938), V5-tagged (mouse) (domain or fragment) | binds | 
Histone deacetylase 7 enzyme-dead mutant (H649A), V5-tagged (mouse) | binds | 

The next lines start with the values.

binding [1] | binding [2] | Molecule
binds |  | N-terminal domain of HDAC7 (amino acids 23-504), V5-tagged (from UniProt Q8C2B3) (domain or fragment)
 | binds | 6-phosphogluconate dehydrogenase (6PGD), Flag-tagged (enzyme, mouse, UniProt Q9DCD0 1-483, looked up, mouse 6-phosphogluconate dehydrogenase (6PGD); A shorter ~40 kDa form (6PGD-s), also detected by anti-Flag, arises in the same cells; also called full-length 6PGD; source: HEK293, transfected (pCMV-based construct), in lysate) MAQADIALIGLAVMGQNLILNMNDHGFVVCAFNRTVSKVDDFLANEAKGTKVVGAQSLKDMVSKLKKPRRVILLVKAGQAVDDFIEKLVPLLDTGDIIIDGGNSEYRDTTRRCRDLKAKGILFVGSGVSGGEEGARYGPSLMPGGNKEAWPHIKAIFQAIAAKVGTGEPCCDWVGDEGAGHFVKMVHNGIEYGDMQLICEAYHLMKDVLGMRHEEMAQAFEEWNKTELDSFLIEITANILKYRDTDGKELLPKIRDSAGQKGTGKWTAISALEYGMPVTLIGEAVFARCLSSLKEERVQASQKLKGPKVVQLEGSKKSFLEDIRKALYASKIISYAQGFMLLRQAATEFGWTLNYGGIALMWRGGCIIRSVFLGKIKDAFERNPELQNLLLDDFFKSAVDNCQDSWRRVISTGVQAGIPMPCFTTALSFYDGYRHEMLPANLIQAQRDYFGAHTYELLTKPGEFIHTNWTGHGGSVSSSSYNA
